Measurements as given in the supplement of paper PMC10849652.
The other results are listed elsewhere or left out.

By UniProt entry, the sequences of proteins in these tests, tags left out. Where a name states a change or a piece, a line headed by the entry shows the natural chain unless it says otherwise.
UniProt Q9NQE9: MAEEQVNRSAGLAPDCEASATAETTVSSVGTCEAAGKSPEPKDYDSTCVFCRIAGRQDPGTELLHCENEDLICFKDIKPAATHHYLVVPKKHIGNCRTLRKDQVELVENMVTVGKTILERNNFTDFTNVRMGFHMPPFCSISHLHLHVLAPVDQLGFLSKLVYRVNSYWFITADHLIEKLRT
UniProt O75506: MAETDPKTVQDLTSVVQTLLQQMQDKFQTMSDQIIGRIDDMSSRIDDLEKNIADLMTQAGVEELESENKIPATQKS
UniProt O43390: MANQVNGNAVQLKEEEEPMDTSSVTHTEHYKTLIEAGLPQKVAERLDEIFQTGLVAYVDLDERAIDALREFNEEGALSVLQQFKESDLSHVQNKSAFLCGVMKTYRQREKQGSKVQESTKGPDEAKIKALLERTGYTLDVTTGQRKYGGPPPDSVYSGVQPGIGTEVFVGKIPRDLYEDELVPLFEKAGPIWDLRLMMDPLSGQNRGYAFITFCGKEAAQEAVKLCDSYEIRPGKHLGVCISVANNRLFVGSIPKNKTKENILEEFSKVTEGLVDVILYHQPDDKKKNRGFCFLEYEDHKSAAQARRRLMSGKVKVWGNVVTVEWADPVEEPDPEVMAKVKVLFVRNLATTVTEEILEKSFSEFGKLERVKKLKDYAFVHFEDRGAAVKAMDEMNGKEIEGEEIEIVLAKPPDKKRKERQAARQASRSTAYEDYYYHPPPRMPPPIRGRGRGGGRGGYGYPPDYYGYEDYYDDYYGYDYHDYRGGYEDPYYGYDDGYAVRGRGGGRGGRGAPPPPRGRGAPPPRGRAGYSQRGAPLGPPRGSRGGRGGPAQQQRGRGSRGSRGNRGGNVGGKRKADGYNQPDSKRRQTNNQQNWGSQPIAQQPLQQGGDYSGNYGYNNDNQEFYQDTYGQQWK
UniProt P0DMV8, whole entry, looked up: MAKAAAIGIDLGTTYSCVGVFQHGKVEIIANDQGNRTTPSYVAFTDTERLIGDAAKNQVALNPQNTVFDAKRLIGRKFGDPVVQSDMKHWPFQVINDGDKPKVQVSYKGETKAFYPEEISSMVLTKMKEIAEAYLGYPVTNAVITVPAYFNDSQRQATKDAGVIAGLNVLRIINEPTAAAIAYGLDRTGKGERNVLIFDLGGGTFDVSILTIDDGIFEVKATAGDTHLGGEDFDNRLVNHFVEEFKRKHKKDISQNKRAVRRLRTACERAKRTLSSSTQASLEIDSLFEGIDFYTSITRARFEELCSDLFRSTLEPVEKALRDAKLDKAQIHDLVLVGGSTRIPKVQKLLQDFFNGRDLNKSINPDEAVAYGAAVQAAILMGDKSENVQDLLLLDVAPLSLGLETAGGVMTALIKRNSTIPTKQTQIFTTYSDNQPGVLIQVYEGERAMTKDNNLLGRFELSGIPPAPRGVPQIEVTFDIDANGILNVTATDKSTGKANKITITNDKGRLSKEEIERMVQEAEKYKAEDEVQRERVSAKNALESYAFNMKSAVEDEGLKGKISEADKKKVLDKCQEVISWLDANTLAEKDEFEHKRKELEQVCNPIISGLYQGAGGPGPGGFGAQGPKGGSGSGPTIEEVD
UniProt P56937: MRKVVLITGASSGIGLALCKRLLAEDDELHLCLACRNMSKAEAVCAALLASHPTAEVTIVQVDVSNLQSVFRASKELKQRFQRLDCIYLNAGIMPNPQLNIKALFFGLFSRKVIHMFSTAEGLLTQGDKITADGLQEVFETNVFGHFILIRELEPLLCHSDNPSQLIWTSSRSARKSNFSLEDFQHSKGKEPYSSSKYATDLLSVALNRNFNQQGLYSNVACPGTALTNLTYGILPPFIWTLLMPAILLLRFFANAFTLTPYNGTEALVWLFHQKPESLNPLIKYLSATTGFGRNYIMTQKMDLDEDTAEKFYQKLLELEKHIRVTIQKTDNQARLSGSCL
UniProt Q5SSJ5: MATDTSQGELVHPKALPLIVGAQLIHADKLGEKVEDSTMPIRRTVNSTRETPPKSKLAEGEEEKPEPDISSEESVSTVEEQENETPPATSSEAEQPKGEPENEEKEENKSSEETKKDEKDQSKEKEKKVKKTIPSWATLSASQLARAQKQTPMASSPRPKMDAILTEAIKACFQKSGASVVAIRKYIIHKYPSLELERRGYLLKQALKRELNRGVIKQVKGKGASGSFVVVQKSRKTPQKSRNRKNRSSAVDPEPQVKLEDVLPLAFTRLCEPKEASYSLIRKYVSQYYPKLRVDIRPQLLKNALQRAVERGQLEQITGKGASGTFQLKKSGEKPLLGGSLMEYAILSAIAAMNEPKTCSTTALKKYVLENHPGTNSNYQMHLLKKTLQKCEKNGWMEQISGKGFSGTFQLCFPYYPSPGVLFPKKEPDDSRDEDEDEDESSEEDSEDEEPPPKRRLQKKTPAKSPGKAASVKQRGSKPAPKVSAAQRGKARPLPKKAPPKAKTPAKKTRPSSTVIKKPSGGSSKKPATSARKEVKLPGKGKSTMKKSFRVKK
UniProt P17482: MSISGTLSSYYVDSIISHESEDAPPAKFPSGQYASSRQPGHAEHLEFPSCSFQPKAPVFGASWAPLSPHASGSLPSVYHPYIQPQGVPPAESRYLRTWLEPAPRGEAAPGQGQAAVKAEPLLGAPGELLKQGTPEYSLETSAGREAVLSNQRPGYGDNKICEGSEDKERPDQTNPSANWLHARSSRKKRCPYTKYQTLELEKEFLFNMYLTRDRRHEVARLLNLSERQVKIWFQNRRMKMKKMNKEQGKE
UniProt P17483: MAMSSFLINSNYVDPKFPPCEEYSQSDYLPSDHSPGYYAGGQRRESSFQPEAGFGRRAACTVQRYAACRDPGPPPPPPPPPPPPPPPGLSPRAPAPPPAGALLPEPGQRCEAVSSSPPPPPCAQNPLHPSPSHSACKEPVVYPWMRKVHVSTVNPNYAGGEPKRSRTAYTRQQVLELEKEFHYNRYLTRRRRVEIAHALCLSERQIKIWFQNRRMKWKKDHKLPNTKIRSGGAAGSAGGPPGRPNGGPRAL
UniProt Q8WVB3: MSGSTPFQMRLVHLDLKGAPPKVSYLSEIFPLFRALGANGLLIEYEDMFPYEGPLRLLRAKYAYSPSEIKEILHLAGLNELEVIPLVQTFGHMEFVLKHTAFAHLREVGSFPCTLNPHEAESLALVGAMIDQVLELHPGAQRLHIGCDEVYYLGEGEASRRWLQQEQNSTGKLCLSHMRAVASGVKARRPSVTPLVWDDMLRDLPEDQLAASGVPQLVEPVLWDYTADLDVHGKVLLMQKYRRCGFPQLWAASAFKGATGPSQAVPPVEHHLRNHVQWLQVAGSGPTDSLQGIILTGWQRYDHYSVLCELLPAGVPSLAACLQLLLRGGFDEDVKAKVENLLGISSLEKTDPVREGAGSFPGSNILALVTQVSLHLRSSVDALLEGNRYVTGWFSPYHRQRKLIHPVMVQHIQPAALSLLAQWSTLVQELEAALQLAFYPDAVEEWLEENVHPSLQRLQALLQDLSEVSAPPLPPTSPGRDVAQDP
UniProt P19367: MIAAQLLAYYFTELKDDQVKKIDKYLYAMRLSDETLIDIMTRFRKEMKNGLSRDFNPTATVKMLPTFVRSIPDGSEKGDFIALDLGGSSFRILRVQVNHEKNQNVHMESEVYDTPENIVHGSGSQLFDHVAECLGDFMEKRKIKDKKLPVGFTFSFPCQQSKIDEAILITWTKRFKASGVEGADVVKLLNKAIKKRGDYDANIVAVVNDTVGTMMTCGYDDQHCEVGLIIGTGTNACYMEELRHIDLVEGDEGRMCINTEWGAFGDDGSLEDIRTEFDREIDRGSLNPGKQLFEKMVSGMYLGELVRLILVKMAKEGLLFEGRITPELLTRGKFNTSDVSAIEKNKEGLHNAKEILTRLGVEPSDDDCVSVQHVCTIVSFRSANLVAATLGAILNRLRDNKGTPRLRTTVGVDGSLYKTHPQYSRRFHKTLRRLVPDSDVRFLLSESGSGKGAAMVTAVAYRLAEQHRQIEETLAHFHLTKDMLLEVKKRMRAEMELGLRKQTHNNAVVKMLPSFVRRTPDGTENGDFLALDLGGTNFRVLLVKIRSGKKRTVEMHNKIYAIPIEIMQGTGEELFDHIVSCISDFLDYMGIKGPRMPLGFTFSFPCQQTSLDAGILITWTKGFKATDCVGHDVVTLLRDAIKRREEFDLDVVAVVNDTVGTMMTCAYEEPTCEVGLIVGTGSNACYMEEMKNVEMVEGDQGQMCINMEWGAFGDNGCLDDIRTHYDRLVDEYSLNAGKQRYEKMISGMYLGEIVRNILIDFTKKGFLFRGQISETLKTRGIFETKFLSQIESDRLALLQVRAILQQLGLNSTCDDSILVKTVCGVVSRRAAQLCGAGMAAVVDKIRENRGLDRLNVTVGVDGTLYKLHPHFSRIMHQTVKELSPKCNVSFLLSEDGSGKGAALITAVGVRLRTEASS
UniProt P52597: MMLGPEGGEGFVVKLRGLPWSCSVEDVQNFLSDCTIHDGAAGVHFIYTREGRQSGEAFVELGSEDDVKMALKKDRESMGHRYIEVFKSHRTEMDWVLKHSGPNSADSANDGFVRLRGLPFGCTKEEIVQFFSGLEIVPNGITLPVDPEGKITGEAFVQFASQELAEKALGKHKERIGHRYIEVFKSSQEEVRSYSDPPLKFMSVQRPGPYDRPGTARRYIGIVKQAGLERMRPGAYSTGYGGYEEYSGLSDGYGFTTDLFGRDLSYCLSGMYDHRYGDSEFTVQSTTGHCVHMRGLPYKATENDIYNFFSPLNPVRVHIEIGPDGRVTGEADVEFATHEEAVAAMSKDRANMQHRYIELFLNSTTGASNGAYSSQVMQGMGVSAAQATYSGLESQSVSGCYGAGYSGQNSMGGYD
UniProt Q9NQG7: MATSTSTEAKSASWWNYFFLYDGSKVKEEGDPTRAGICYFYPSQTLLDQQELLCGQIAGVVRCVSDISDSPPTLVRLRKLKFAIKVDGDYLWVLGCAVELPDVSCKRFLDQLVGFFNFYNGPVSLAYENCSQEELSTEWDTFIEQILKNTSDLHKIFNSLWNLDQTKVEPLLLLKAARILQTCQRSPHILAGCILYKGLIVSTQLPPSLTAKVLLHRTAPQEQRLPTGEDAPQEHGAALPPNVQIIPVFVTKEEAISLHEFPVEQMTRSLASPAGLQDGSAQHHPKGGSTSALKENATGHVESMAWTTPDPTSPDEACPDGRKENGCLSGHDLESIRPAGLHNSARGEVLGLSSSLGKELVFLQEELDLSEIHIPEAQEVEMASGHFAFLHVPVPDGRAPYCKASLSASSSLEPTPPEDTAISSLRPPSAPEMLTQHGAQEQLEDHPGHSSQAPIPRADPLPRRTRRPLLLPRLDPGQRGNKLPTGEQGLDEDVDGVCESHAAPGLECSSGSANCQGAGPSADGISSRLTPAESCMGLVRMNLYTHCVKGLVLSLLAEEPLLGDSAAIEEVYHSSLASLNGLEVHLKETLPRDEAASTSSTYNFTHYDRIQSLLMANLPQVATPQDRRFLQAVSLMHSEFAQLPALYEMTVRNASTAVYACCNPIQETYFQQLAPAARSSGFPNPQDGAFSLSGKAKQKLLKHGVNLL
UniProt Q8IWL3: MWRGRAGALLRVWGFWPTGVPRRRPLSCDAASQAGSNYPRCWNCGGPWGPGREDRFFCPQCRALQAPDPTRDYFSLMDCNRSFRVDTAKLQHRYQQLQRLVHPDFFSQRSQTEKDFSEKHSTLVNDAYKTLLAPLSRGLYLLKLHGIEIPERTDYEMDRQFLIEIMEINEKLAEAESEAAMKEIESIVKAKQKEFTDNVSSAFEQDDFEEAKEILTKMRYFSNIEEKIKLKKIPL
UniProt Q9BTY7: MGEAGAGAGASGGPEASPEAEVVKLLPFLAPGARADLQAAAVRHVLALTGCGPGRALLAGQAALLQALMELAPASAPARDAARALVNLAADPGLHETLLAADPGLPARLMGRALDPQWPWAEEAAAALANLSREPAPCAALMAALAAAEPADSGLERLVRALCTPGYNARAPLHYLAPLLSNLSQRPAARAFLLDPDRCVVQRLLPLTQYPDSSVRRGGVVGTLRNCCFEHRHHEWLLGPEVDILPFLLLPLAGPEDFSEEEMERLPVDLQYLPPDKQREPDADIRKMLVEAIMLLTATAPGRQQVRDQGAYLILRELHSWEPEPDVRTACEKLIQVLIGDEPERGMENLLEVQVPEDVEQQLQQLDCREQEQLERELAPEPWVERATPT
UniProt Q15011: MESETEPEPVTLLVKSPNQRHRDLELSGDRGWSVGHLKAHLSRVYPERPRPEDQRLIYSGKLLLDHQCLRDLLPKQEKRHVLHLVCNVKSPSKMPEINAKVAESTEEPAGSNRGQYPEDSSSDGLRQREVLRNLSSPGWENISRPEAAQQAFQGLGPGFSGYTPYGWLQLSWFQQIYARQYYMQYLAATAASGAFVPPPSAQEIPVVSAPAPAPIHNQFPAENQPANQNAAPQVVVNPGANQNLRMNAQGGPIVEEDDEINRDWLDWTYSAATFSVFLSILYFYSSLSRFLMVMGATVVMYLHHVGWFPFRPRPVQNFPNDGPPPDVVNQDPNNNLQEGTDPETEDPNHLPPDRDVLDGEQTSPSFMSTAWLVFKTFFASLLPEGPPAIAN

The targets below were run with CCn1c(C(=O)N(C2CC2)C2CC2)cc2c3c(ncn3C)c(Nc3cc(C)n(C)n3)nc21 (assay: log2 fold change, soluble protein after heating vs DMSO (PISA); higher = thermal stabilisation; K562 lysate, 10 uM; active = over 0.2 and 3.5 SD of the protein, either way, in both replicates (recomputed)).
Method in brief: (§1)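 Values give the log-two fold change in thermal stability against solvent controls, from duplicates. Crude K562 extract at 1 mg/mL protein, made by dounce homogenisation in PBS pH 7.4 with 1 mM MgCl2, was treated with 10 μM compound for 30 min. After 3 min heating across 48°C-58°C, aliquots were pooled, adjusted to 0.5% NP-40 at 4°C and centrifuged at 21,000xg for 90 min. The supernatant was measured by TMTpro 16plex LC-MS/MS with channel sums equalised.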

log2 fold change, inactive:
HOOK3 (UniProt Q86VS8) 0.021, HINT3 (UniProt Q9NQE9) 0.01, HPS5 (UniProt Q9UPZ3) -0.107, HECW2 (UniProt Q9P2P5) -0.04, HSBP1 (UniProt O75506) 0.101, HNRNPR isoform 2 (UniProt O43390) 0.034, HSPA1A (UniProt P0DMV8) -0.02, HSD17B7 (UniProt P56937) -0.091, HP1BP3 (UniProt Q5SSJ5) 0.002, HPF1 (UniProt Q9NWY4) 0.015, HECTD4 (UniProt J3KPF0) 0.037, HNRNPA2B1 (UniProt P22626) -0.009, HOXB9 (UniProt P17482) 0.195, HPS1 (UniProt Q92902) 0.014, HOXB4 (UniProt P17483) 0.07, HIRA (UniProt P54198) 0, HJURP (UniProt Q8NCD3) 0.007, HEXD isoform 2 (UniProt Q8WVB3) 0.122, HK1 isoform 2 (UniProt P19367) 0.014, HEATR6 (UniProt Q6AI08) 0.073, HSF2 (UniProt Q03933) -0.025, HNRNPF (UniProt P52597) 0.013, HPS3 (UniProt Q969F9) 0.114, HPS4 isoform 4 (UniProt Q9NQG7) 0.027, HSCB (UniProt Q8IWL3) 0.009, HMCN1 (UniProt Q96RW7) -0.36, HSP90AA1 isoform 2 (UniProt P07900) -0.017, HGH1 (UniProt Q9BTY7) 0.01

Each target was assayed with CCn1cc(-c2ccnc3[nH]c(-c4cccc(CN(C)C)c4)cc23)c(-c2ccc(NC(=O)N(C)C)cc2)n1 in the same assay as above.
Method in brief: as §1

log2 fold change, inactive:
HOOK3 (UniProt Q86VS8) -0.039, HINT3 (UniProt Q9NQE9) 0.012, HPS5 (UniProt Q9UPZ3) 0.327, HNMT (UniProt P50135) 0.026, HSBP1 (UniProt O75506) 0.357, HNRNPR isoform 2 (UniProt O43390) -0.016, HSPA1A (UniProt P0DMV8) 0.209, HSD17B7 (UniProt P56937) -0.06, HP1BP3 (UniProt Q5SSJ5) 0.003, HPF1 (UniProt Q9NWY4) -0.011, HECTD4 (UniProt J3KPF0) 0.007, HNRNPA2B1 (UniProt P22626) -0.054, HERPUD1 (UniProt Q15011) 0.065, HOXB9 (UniProt P17482) -0.015, HPS1 (UniProt Q92902) -0.025, HOXB4 (UniProt P17483) -0.025, HIRA (UniProt P54198) -0.155, HEXD isoform 2 (UniProt Q8WVB3) -0.166, HK1 isoform 2 (UniProt P19367) -0.008, HEATR6 (UniProt Q6AI08) -0.001, HSF2 (UniProt Q03933) -0.181, HNRNPF (UniProt P52597) -0.053, HPS3 (UniProt Q969F9) -0.027, HSCB (UniProt Q8IWL3) -0.044, HMCN1 (UniProt Q96RW7) 0.343, HSP90AA1 isoform 2 (UniProt P07900) 0.125, HGH1 (UniProt Q9BTY7) -0.05
